Experimental data taken from ChEMBL document CHEMBL4266045, “Understanding Molecular Drivers of Melanin Binding To Support Rational Design of Small Molecule Ophthalmic Drugs” (J Med Chem, 2018).

Test: Lipophilicity, log D of compound
Settings: octanol/water

Work on `Nc1nc2ccc(OC(F)(F)F)cc2s1` [RILUZOLE] yielded a logD of 2.89.
